According to PubChem BioAssay AID1508600 (Functional Genomics Laboratory (NCATS/FGL), 2020):
Screen size: about 53,000 sequences; about 3,700 (7%) were called active.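 How the source made its calls: active means gene knockdowns whose robust z-score for IL-1 alpha signal is at least 2 or at most -2, so actives lie on both sides; inactive means the rest.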 The list shows a part of the results.

assay: Components of the Cytosolic LPS Sensing Pathway: Gene Identification via Genome-wide siRNA Screen; details: RAW264.7 macrophages, IL-1a HTRF, actives lie on both sides, screened at 100 nM (by protocol), cells primed 5 h with Pam3CSK4 first;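 further: robust z of the log signal after scaling to non-targeting control siRNA wells of the plate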
How it was run: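 Cells (RAW264.7, 1×10^4 per well) were transfected with siRNA at 100 nM and cultured 48h at 37 degrees C. Pam3CSK4 was added for 5 hours; LipidA transfection followed for 24 hour. IL-1a was then measured by HTRF.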

Sequence	z-score
GGAUAAGAAGACCUGCAUCTT against Gng12	inactive: -1.88
GGGAAAAGUUUUGGAAAAUTT against Hps5	inactive: -0.406
GGACAUGCAUCUUGUUUUCTT against Olfr1307	inactive: -1.03
GGUUCCAAUGCUAUUGAAUTT against Tc2n	inactive: 0.391
GCCUUAACAAUGUUAAUCATT against Cadm2	inactive: -1.09
GGGACGUGAAGAUGAAGAATT against Fbp1	inactive: 0.496
GGAUUGAAGAAGAAAAGUCTT against Creb1	inactive: -0.761
GGAAGUCAAGGAAGCCUUCTT against Olfr368	inactive: 0.947
CCAUUGACUCCAGUGGGAATT against Ntmt1	inactive: 0.298
GGAAGAGUGUAUCAUUCUUTT against Dusp9	inactive: 0.129
CGUGAGGUUUGGAGGGUCATT against Rps9	inactive: -0.344
CCUAAAUGGAUAGGGUUGCTT against 1700001C19Rik	inactive: -0.378
GGAAAAGACAAGGAAUAUGTT against Ube2r2	inactive: -0.126
GGAGAGUGGCAUUACCUAUTT against Meis3	inactive: 0.983
UGCUGACGACAUCCCAUGCTT against Olfr255	inactive: -0.0376
GGAAAGAUUUCGAACAAUCTT against Rab1a	inactive: 1.66
GGAGAAAGUGCGUCUAUAATT against Gdi2	inactive: 0.109
GGAUUUGCAUCUUAAGGAATT against Map3k7cl	inactive: 0.743
GCAUGUAGUGGAGAAAUGCTT against Zbtb12	inactive: -0.744
GGCAUUUGUGCUCUUCGGATT against Sctr	inactive: -0.847
CCAUUAUCAAGGAACAAGCTT against Itgb4	inactive: -0.151
GGACAAUUCUAUCAAGUGGTT against Fcgr4	inactive: -0.245
GGGUAUGAGGGCCAAAAUATT against Pheta1	inactive: 0.699
GGUGACCAAGCAGAUAACATT against Prcc	inactive: -1.19
CCUAAAAUACUUUACCGGGTT against Bckdhb	inactive: -0.025
GGAGAUUUACACUUUACUATT against Spata4	inactive: 0.901
GGGAUGCUUUUGGCCCAAATT against Rita1	inactive: 0.901
CCAACGUACCAGCAAUAGUTT against Rab8a	inactive: 0.0739
GGUAGAAGAAUUGUUUGUGTT against Tcp11l1	inactive: 0.967

2 entries drawn at random from the list so far:
Sequence	z-score
GGACAAUUCUAUCAAGUGGTT against Fcgr4	inactive: -0.245
CCUAAAUGGAUAGGGUUGCTT against 1700001C19Rik	inactive: -0.378
